According to patent publication US20070099830A1:
No constants are given. Whether binding was seen depends on the method and setting. Binding seen in cells or lysates may run through a third protein. Binding calls can cover weak binding; strength is not graded here. For some assays here: Sequences can lack the tags named with a protein. Each block holds one binder with its values, some of them ahead of it.

Legend:
[1] = target: adenine nucleotide transporter (endogenous, 293T cells) (human); test: co-immunoprecipitation from 293T cells with α-FLAG, western blot
[2] = target: adenine nucleotide transporter (endogenous, MIN6 cells) (mouse); test: co-immunoprecipitation of endogenous proteins from MIN6 cells, western blot

binding [1]: binds
B1: human Sirt4 with a C-terminal FLAG (enzyme, not shown: small tags and cut ends)
chain: IGLFVPASPPLDPEKVKELQRFITLSKRLLVMTGAGISTESGIPDYRSEKVGLYARTDRRPIQHGDFVRSAPIRQRYWARNFVGWPQFSSHQPNPAHWALSTWEKLGKLYWLVTQNVDALHTKAGSRRLTELHGCMDRVLCLDCGEQTPRGVLQERFQVLNPTWSAEAHGLAPDGDVFLSEEQVRSFQVPTCVQCGGHLKPDVVFFGDTVNPDKVDFVHKRVKEADSLLVVGSSLQVYSGYRFILTAWEKKLPIAILNIGPTRSDDLACLKLNSRCGELLPLIDPC

binding [2]: binds
B2: mouse Sirt4 (endogenous, MIN6 cells) (enzyme)
chain: SGLFVPPSPPLDPEKIKELQRFISLSKKLLVMTGAGISTESSIPDYRSEKVGLYARTDRRPIQHIDFVRSAPVRQRYWARNFVGWPQFSSHQPNPAHWALSNWERLGKLHWLVTQNVDALHSKAGSQRLTELHGCMHRVLCLNCGEQTARRVLQERFQALNPSWSAEAQGVAPDGDVFLTEEQVRSFQVPCCDRCGGPLKPDVVFFGDTVNPDKVDFVHRRVKEADSLLVVGSSLQVYSGYRFILTAREQKLPIAILNIGPTRSDDLACLKLDSRCGELLPLIDPRRQHSDVQRLEMNFPLSSAAQDP
